# The supplement of paper PMC9015667
# Some of the results follow. Single values are uncertain, as repeats are few or missing.
# System: M229P (parental melanoma line)
# Assay: reduction in cell viability relative to untreated/vehicle; higher = more growth inhibition
# Details: 200 nM; 72 h
row,SMILES,reduction in cell viability
1,C=C1C[C@@]2(O)O[C@@]3(C[C@H]2C(C)C)[C@@H](C)CC[C@@H]13 [Curcumol],< 0%
2,Cc1ccc(-c2ncn(-c3ccc(Nc4nccc(-c5cccc(N6CCOCC6)c5)n4)cc3)n2)cn1,< 0%
3,CN1CCC(=C2c3ccccc3CC(=O)c3sccc32)CC1 [Ketotifen],< 0%
4,CCCCOc1ccc(C(=O)Nc2ccc(F)cc2F)cc1,< 0%
5,CCCCCCCCCCC[C@@H](C[C@@H]1OC(=O)[C@H]1CCCCCC)OC(=O)[C@H](CC(C)C)NC=O [Orlistat],< 0%
6,CC1=C[C@@H]2[C@H]([C@@H](O)C[C@@]3(C)[C@H]2C[C@@H](C)[C@]3(O)C(=O)CO)[C@@]2(C)Cc3cnn(-c4ccccc4)c3C=C12 [Deacetyl cortivazol],< 0%
7,COC(=O)Nc1nc2cc(C(=O)c3ccc(F)cc3)ccc2[nH]1 [Flubendazole],5.17%
